Test results from article PMC4587738.
Results are given in words; binding and its absence hold for the method and conditions named. In cells and extracts the contact can be indirect. These calls come from enrichment with a bait or labelling near it, and not all partners need be listed. For some assays here: No binding means not detected with the bait.

The chains behind the UniProt entries cited, without tags or fusion partners.
UniProt P83917: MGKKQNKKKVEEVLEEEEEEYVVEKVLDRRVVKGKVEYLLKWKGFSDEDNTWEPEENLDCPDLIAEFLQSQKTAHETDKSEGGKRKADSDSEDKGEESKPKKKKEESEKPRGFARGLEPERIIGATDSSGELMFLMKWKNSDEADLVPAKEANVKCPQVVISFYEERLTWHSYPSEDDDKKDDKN

Key:
[1] = biological target: Heterochromatin Protein 1β (mouse (endogenous in R1 ESCs and MEFs)) (UniProt P83917); experiment: affinity purification with mass spectrometry; endogenous HP1β immunoprecipitated (antibody 1MOD-1A9, Protein G-agarose) from the nuclear (S3 and P3) fractions of 10^8 MEFs; wash buffer 30 mM Tris-HCl pH 7.5, 0.2 mM EDTA, 0.5 mM dithiothreitol, 0.2 % Triton X-100, 150 mM NaCl; anti-GFP as negative control; LC-MS/MS; two biological replicates
[2] = biological target: Heterochromatin Protein 1β (mouse (endogenous in R1 ESCs and MEFs)) (UniProt P83917); experiment: affinity purification with mass spectrometry; endogenous HP1β immunoprecipitated (antibody 1MOD-1A9, Protein G-agarose) from the nuclear (S3 and P3) fractions of 10^8 R1 ESCs; wash buffer 30 mM Tris-HCl pH 7.5, 0.2 mM EDTA, 0.5 mM dithiothreitol, 0.2 % Triton X-100, 150 mM NaCl; anti-GFP as negative control; LC-MS/MS; two biological replicates
[3] = biological target: T1, Heterochromatin Protein 1β (mouse (endogenous in R1 ESCs and MEFs)), P83917; experiment: affinity purification with mass spectrometry; endogenous HP1β immunoprecipitated (antibody 1MOD-1A9, Protein G-agarose) from the nuclear (S3 and P3) fractions of 10^8 MEFs; wash buffer 30 mM Tris-HCl pH 7.5, 0.2 mM EDTA, 0.5 mM dithiothreitol, 0.2 % Triton X-100, 150 mM NaCl; anti-GFP as negative control; LC-MS/MS; two biological replicates; conditions: remark: other sources report otherwise
[4] = biological target: T1, Heterochromatin Protein 1β (mouse …); experiment: affinity purification with mass spectrometry; endogenous HP1β immunoprecipitated (antibody 1MOD-1A9, Protein G-agarose) from the nuclear (S3 and P3) fractions of 10^8 R1 ESCs; wash buffer 30 mM Tris-HCl pH 7.5, 0.2 mM EDTA, 0.5 mM dithiothreitol, 0.2 % Triton X-100, 150 mM NaCl; anti-GFP as negative control; LC-MS/MS; two biological replicates; conditions: remark: other sources report otherwise

| Binder | binding [1] | binding [2] | binding [3] | binding [4] |
| --- | --- | --- | --- | --- |
| hnRNPH2 (protein, UniProt P70333 1-449) MMLSTEGREGFVVKVRGLPWSCSAEEVMRFFSDCKIQNGTSGVRFIYTREGRPSGEAFVELESEDEVKLALKKDRETMGHRYVEVFKSNSVEMDWVLKHTGPNSPDTANDGFVRLRGLPFGCSKEEIVQFFSGLEIVPNGMTLPVDFQGRSTGEAFVQFASQEIAEKALKKHKERIGHRYIEIFKSSRAEVRTHYDPPRKLMTMQRPGPYDRPGAGRGYNSIGRGAGFERMRRGAYGGGYGGYDDYGGYNDGYGFGSDRFGRDLNYCFSGMSDHRYGDGGSSFQSTTGHCVHMRGLPYRATENDIYNFFSPLNPMRVHIEIGPDGRVTGEADVEFATHEDAVAAMAKDKANMQHRYVELFLNSTAGTSGGAYDHSYVELFLNSTAGASGGAYGSQMMGGMGLSNQSSYGGPASQQLSGGYGGGYGGQSSMSGYDQVLQENSSDYQSNLA | binds | binds |  |  |
| hnRNPA0 (protein, UniProt Q9CX86 1-305) MENSQLCKLFIGGLNVQTSESGLRGHFEAFGTLTDCVVVVNPQTKRSRCFGFVTYSNVEEADAAMAASPHAVDGNTVELKRAVSREDSARPGAHAKVKKLFVGGLKGDVAEGDLIEHFSQFGAVEKAEIIADKQSGKKRGFGFVYFQSHDAADKAAVVKFHPIQGHRVEVKKAVPKEDIHAGGGGARAARGGRGGGRGRGGGGGGGGRDQNGLAKGGGGGGGGYNSYGGYGGYGAYGGGGGGGGSYGGSDYGNGFGGFGSYSQHQSSYGPMKSGGGGGGGGSWGGRSNSGPYRGGYGGGYGGGSF | binds | binds |  |  |
| Eif4enif1 (protein, UniProt Q9EST3 1-983) MEKSVAETENGDAFLELKKLPTSKSPHRYTKEELLDIKERPYSKQRPSCLSEKYDSDGVWDPEKWHASLYPASGRSSPVESLKKESESDRPSLVRRIADPRERVKEDDLDVVLSPQRRSFGGGCHVTAAVSSRRSGSPLEKDSDGLRLLGGRRIGSGRIISARAFEKDHRLSDKDLRDLRDRDRERDYKDKRFRREFGDSKRVFGERRRNDSYTEEEPEWFSAGPTSQSETIELTGFDDKILEEDHKGRKRTRRRTASVKEGIVECNGGVAEEDEVEVILAQEPSADQEVPRDVILPEQSPGEFDFNEFFNLDKVPCLASMIEDVLGEGSVSASRFSRWFSNPSRSGSRSSSLGSTPHEELERLAGLEQAVLSPGQNSGNYFAPIPSEDHAENKVDILEMLQKAKVDLKPLLSSLSANKEKLKESSHSGVVLSVEEVEAGLKGLKVDQQMKNSTPFMAEHLEETLSAASSNRQLKKDGDMTAFNKLVNTMKASGTLPTQPKVSRNVESHLLAPAEIPGQPVSKNILQELLGQPVQRPASSNLLSGLMGSLEATASLLSQRAPSPPMSQVFRTQAASADYLHPRIPSPIGFPSGPQQLLGDPFQGMRKPMSPVSAQMSQLELQQAALEGLALPHDLAVQTAPFYQPGFSKPQVDRTRDGLRNRQQRMSKSPAPMHGGNSSSPAPAASITSMLSPSFTPTSVIRKMYESREKTKEEMAPGMVVPGDGKEDTQKTSEENLLSSNPIPNTDQDSSTTNPKLSTLQRSSCSTPLSQTSRYTKEQDYRPKTAGRKTPTLASPVPGTPFLRPTHQVPLVPHVPIVRPAHQLHPGLVQRLIAQGVHPQHLPSLLQAGVLPPGIDMAPLQGLSGPLLGQPLYPLVSAASHPLLNPRPGTPLHLAVMQQQLQRSVLHPPGSSSQAAAISVQTPQNVPSRSGMPHMHSQLEHRTSQRSSSPVGLAKWFGSDVLQQPLPSMPTKVISVDELEYRQ | binds | binds |  |  |
| KAP1/TRIM28/TIF1β, Q62318 1-834 (protein) MAASAAATAAASAATAASAASGSPGSGEGSAGGEKRPAASSAAAASAAASSPAGGGGEAQELLEHCGVCRERLRPERDPRLLPCLHSACSACLGPATPAAANNSGDGGSAGDGAMVDCPVCKQQCYSKDIVENYFMRDSGSKASSDSQDANQCCTSCEDNAPATSYCVECSEPLCETCVEAHQRVKYTKDHTVRSTGPAKTRDGERTVYCNVHKHEPLVLFCESCDTLTCRDCQLNAHKDHQYQFLEDAVRNQRKLLASLVKRLGDKHATLQKNTKEVRSSIRQVSDVQKRVQVDVKMAILQIMKELNKRGRVLVNDAQKVTEGQQERLERQHWTMTKIQKHQEHILRFASWALESDNNTALLLSKKLIYFQLHRALKMIVDPVEPHGEMKFQWDLNAWTKSAEAFGKIVAERPGTNSTGPGPMAPPRAPGPLSKQGSGSSQPMEVQEGYGFGSDDPYSSAEPHVSGMKRSRSGEGEVSGLLRKVPRVSLERLDLDLTSDSQPPVFKVFPGSTTEDYNLIVIERGAAAAAAGQAGTVPPGAPGAPPLPGMAIVKEEETEAAIGAPPAAPEGPETKPVLMPLTEGPGAEGPRLASPSGSTSSGLEVVAPEVTSAPVSGPGILDDSATICRVCQKPGDLVMCNQCEFCFHLDCHLPALQDVPGEEWSCSLCHVLPDLKEEDGSLSLDGADSTGVVAKLSPANQRKCERVLLALFCHEPCRPLHQLATDSTFSMEQPGGTLDLTLIRARLQEKLSPPYSSPQEFAQDVGRMFKQFNKLTEDKADVQSIIGLQRFFETRMNDAFGDTKFSAVLVEPPPLNLPSAGLSSQELSGPGDGP |  |  | no binding | no binding |
